Results from patent publication US20210046139A1, “VEGETATION WATERS AND USES THEREOF” (FATTORIA LA VIALLA DI GIANNI, ANTONIO E BANDINO LO FRANCO - …, priority 2018, published 2021).
Entries after “also recorded” stand apart in the source; their conditions may differ. At least one compound was matched to its structure with a doubt left. Some results were stated once for a whole list of compounds, not compound by compound.

Key:
Assay type in all cases: in vivo, Sprague-Dawley rats
STZ diabetic rats [1] = experiment: Motor and sensory nerve conduction velocity (tail, sciatic nerve)
Source text: A well-established model of streptozotocin (STZ)-induced diabetes in rats was used. Streptozotocin is a glucosamine derivative of nitrosurea which selectively destroys the β cells of the pancreatic islets and causes the development of diabetes with hyperglycemia and glycosuria. The model shares a series of characteristics with human diabetic complications at both a functional level and a biochemical level, such as, for example, a reduced nervous conduction, loss of small-diameter sensory nerve fibers in the skin, reduction in Na+ and K+-ATPase activity and early alterations of the thermal and mechanical nociceptive thresholds. In this study, diabetes was induced in 24 rats with a single intraperitoneal injection of 60 mg/kg of STZ dissolved in a sodium citrate buffer (pH 4.5). 24 rats injected only with the vehicle were used as non-diabetic controls. Hyperglycemia was confirmed by measuring glycosuria 72 hours after the injection of STZ using Keto-Diabur strips (KD-5000; Roche Diagnostics Spa, Italy). […] The motor conduction velocity was calculated by subtracting the distal value from the proximal value taking the latency of the first negative peak of the proximal CMAP, measured in milliseconds, and the difference was […] the distance between the two stimulating electrodes, measured in millimeters. The sensory conduction velocity was determined using the plantar nerve. The sensory nerve action potential (SNAP) of the plantar nerve was measured by placing the recording electrode (needle) in subcutaneous tissue at the level of the […] next to the medial malleolus and the reference electrode proximally at about 1 cm. […] The sensory conduction velocity was calculated by measuring the latency at the negative deviation of the peak potential and the distance between the stimulation electrode and the recording electrode. The motor and sensory conduction velocities are expressed as meters per second. […] The SNAPs were recorded by inserting the active electrode 5 cm from the cathode and the reference electrode at 1 cm more proximally. […]

STZ diabetic rats [2] = experiment: Plasma glucose and glycated hemoglobin (HbA1c); settings: non-diabetic control rats
Source text: A well-established model of streptozotocin (STZ)-induced diabetes in rats was used. Streptozotocin is a glucosamine derivative of nitrosurea which selectively destroys the β cells of the pancreatic islets and causes the development of diabetes with hyperglycemia and glycosuria. The model shares a series of characteristics with human diabetic complications at both a functional level and a biochemical level, such as, for example, a reduced nervous conduction, loss of small-diameter sensory nerve fibers in the skin, reduction in Na+ and K+-ATPase activity and early alterations of the thermal and mechanical nociceptive thresholds. In this study, diabetes was induced in 24 rats with a single intraperitoneal injection of 60 mg/kg of STZ dissolved in a sodium citrate buffer (pH 4.5). 24 rats injected only with the vehicle were used as non-diabetic controls. Hyperglycemia was confirmed by measuring glycosuria 72 hours after the injection of STZ using Keto-Diabur strips (KD-5000; Roche Diagnostics Spa, Italy). Only the animals with glycosuria >5% were classified as diabetic and included in the study. […]

STZ diabetic rats [3] = experiment: Mechanical nociceptive threshold (Randall-Selitto test); settings: FIG. 2
Source text: A well-established model of streptozotocin (STZ)-induced diabetes in rats was used. Streptozotocin is a glucosamine derivative of nitrosurea which selectively destroys the β cells of the pancreatic islets and causes the development of diabetes with hyperglycemia and glycosuria. The model shares a series of characteristics with human diabetic complications at both a functional level and a biochemical level, such as, for example, a reduced nervous conduction, loss of small-diameter sensory nerve fibers in the skin, reduction in Na+ and K+-ATPase activity and early alterations of the thermal and mechanical nociceptive thresholds. In this study, diabetes was induced in 24 rats with a single intraperitoneal injection of 60 mg/kg of STZ dissolved in a sodium citrate buffer (pH 4.5). 24 rats injected only with the vehicle were used as non-diabetic controls. Hyperglycemia was confirmed by measuring glycosuria 72 hours after the injection of STZ using Keto-Diabur strips (KD-5000; Roche Diagnostics Spa, Italy). […] The animals were then randomized to receive the concentrate of the invention at an HT equivalent dose of 50 mg/kg/day or 50 mg/kg/day of pure HT in drinking water, according to the following treatment groups: The mechanical nociceptive threshold (Randall-Selitto test) was assessed using an electromechanical apparatus (Ugo Basile, Varese, Italy). […]

STZ diabetic rats [4] = experiment: Eye examination and cataract classification; settings: FIG. 3
Source text: A well-established model of streptozotocin (STZ)-induced diabetes in rats was used. Streptozotocin is a glucosamine derivative of nitrosurea which selectively destroys the β cells of the pancreatic islets and causes the development of diabetes with hyperglycemia and glycosuria. The model shares a series of characteristics with human diabetic complications at both a functional level and a biochemical level, such as, for example, a reduced nervous conduction, loss of small-diameter sensory nerve fibers in the skin, reduction in Na+ and K+-ATPase activity and early alterations of the thermal and mechanical nociceptive thresholds. In this study, diabetes was induced in 24 rats with a single intraperitoneal injection of 60 mg/kg of STZ dissolved in a sodium citrate buffer (pH 4.5). 24 rats injected only with the vehicle were used as non-diabetic controls. Hyperglycemia was confirmed by measuring glycosuria 72 hours after the injection of STZ using Keto-Diabur strips (KD-5000; Roche Diagnostics Spa, Italy). Only the animals with glycosuria >5% were classified as diabetic and included in the study. […] Cataract severity was classified using a validated semi-quantitative scale. […] The opacity index was calculated to quantitatively assess the degree of opacity of the crystalline lens by means of the following formula: [formula]

STZ diabetic rats [5] = experiment: Thermal nociceptive threshold (hot plate test); settings: FIG. 1
[6] = Body weight, daily food and water intake in STZ diabetic and control rats
Source text: Use was made of 48 male Sprague-Dawley rats (Harlan, Italy) with a weight comprised from 180-200 g. A well-established model of streptozotocin (STZ)-induced diabetes in rats was used. Streptozotocin is a glucosamine derivative of nitrosurea which selectively destroys the β cells of the pancreatic islets and causes the development of diabetes with hyperglycemia and glycosuria. The model shares a series of characteristics with human diabetic complications at both a functional level and a biochemical level, such as, for example, a reduced nervous conduction, loss of small-diameter sensory nerve fibers in the skin, reduction in Na+ and K+-ATPase activity and early alterations of the thermal and mechanical nociceptive thresholds. In this study, diabetes was induced in 24 rats with a single intraperitoneal injection of 60 mg/kg of STZ dissolved in a sodium citrate buffer (pH 4.5). 24 rats injected only with the vehicle were used as non-diabetic controls. Hyperglycemia was confirmed by measuring glycosuria 72 hours after the injection of STZ using Keto-Diabur strips (KD-5000; Roche Diagnostics Spa, Italy). Only the animals with glycosuria >5% were classified as diabetic and included in the study. […] The animals were then randomized to receive the concentrate of the invention at an HT equivalent dose of 50 mg/kg/day or 50 mg/kg/day of pure HT in drinking water, according to the following treatment groups: The daily dose of compounds was administered starting from the 7th week after the injection of STZ or the vehicle. The treatment lasted 5 weeks and urine samples were taken. The animals were then sacrificed and the plasma, kidneys and sciatic nerves were removed. The sacrifice took place within 2 hours after the last administration of the concentrate, HT or the vehicle. During the trial, the rats were weighed weekly to monitor their weight gain/loss. Hyperglycemia was confirmed in every rat by measuring the glucose level in the blood taken from the vein of the tail with a suitable apparatus (Glucomen, Menarini, Italy), 15 days after the injection of STZ. […]

OCCc1ccc(O)c(O)c1 [HT, hydroxytyrosol]
effect on tail NCV (STZ diabetic rats [1]; STZ diabetic rats compared to untreated diabetic rats): significantly improved | NCV values higher (STZ diabetic rats [1]; STZ diabetic rats, end of the 5-week period): 13-25% | effect on the NCV values (STZ diabetic rats [1]; non-diabetic rats): Neither the concentrate nor HT showed any effect | influence on glycemia or HbA1c values (STZ diabetic rats [2]): did not influence | effect on mechanical nociceptive threshold (STZ diabetic rats [3]): significant effect; also recorded: capable of increasing the mechanical nociceptive threshold | effect on cataract development and progression (STZ diabetic rats [4]): reduced cataract severity; also recorded: reduce and prevent the onset of cataracts | effect on thermal nociceptive threshold (STZ diabetic rats [5]): reduced the impairment of the thermal nociceptive threshold in diabetic rats without reaching statistical significance; also recorded: does not induce a significant reduction | effect on consumption of food (polyphagia) ([6]; STZ diabetic rats): but not the group treated with HT | effect on lower body weight of diabetic rats ([6]; STZ diabetic rats): did not change this situation | effect on body weight ([6]; non-diabetic control rats vs. untreated control rats): did not show an increase in weight
